Results: the supplement of paper PMC10689618
This is one part of the list. Repeats are few or missing, and single values can be far off.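 Primary human fetal astrocytes engulfed labelled rat cortical synaptosomes, measured as a red/green ratio corrected for calcein live-cell signal and scaled to the plate median. Toxicity meant calcein falling over 30%; decreased phagocytosis meant below 70% of median above 5 µM.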

Assays:
[1] = tested on: Human fetal astrocytes; experiment: loss of total cells relative to no-compound high-control median (toxicity); higher = more toxic (fewer cells); details: 24 h
[2] = tested on: Human fetal astrocytes; experiment: synaptosome phagocytosis (pHrodo/calcein intensity ratio) relative to plate median of data wells; higher = more phagocytosis; details: 24 h

| Compound | loss of total cells ([1]; 1.39 µM) | loss of total cells ([1]; 2.78 µM) | loss of total cells ([1]; 5.56 µM) | loss of total cells ([1]; 11.11 µM) | loss of total cells ([1]; 22.22 µM) | synaptosome phagocytosis ([2]; 1.39 µM) | synaptosome phagocytosis ([2]; 2.78 µM) | synaptosome phagocytosis ([2]; 5.56 µM) | synaptosome phagocytosis ([2]; 11.11 µM) | synaptosome phagocytosis ([2]; 22.22 µM) |
| --- | --- | --- | --- | --- | --- | --- | --- | --- | --- | --- |
| COc1cc([C@@H]2c3cc4c(cc3[C@@H](O[C@@H]3O[C@@H]5CO[C@@H](c6cccs6)O[C@H]5[C@H](O)[C@H]3O)[C@H]3COC(=O)[C@H]23)OCO4)cc(OC)c1O [EPT PTG Vehem Vumon VM 26 Teniposide Veham-Sandoz] | -14.9% | 10.1% | 15.9% | 26.6% | 19.8% | 97.2% | 123% | 129% | 87.8% | 118% |
| COc1ccc2c(C)cc(=O)oc2c1 | -24.6% | 4.7% | -14.7% | -0.7% | -4.4% | 68% | 86.2% | 99.7% | 106% | 100% |
| COc1ccc(C2C(=O)c3ccccc3C2=O)cc1 | 11.3% | -24.6% | 5.6% | -8.9% | -1.6% | 122% | 105% | 89.1% | 99% | 111% |
| CC(=O)O[C@@H]1CC(=O)[C@@]2(C)C(CC(=O)[C@]3(C)C2CC[C@@]2(C)[C@H](c4ccoc4)OC(=O)C4OC423)C1(C)C (stereo not given in full) | -11.2% | -15.9% | 45.8% | -2.6% | 33.7% | 80.1% | 124% | 132% | 113% | 135% |
| O=S(=O)(O)c1cc(N=C=S)ccc1/C=C/c1ccc(N=C=S)cc1S(=O)(=O)O | 3.3% | 16.2% | 8.8% | 34.5% | 47.4% | 121% | 129% | 92% | 134% | 174% |
| O=C(Nc1ccccc1)c1ccccc1O | -10% | -25.9% | -9.3% | -32.8% | 4.5% | 110% | 101% | 107% | 122% | 107% |
| O=C([O-])c1ccccc1[O-].[Bi+3].[OH-] | 4.8% | -17.5% | 11.2% | 42.3% | 17.8% | 110% | 96.8% | 123% | 171% | 131% |
| NC(Cn1ccc(=O)c(O)c1)C(=O)O (stereo not given) | 17.7% | 11.2% | 18.8% | -2.9% | 15.9% | 79.3% | 125% | 162% | 75.9% | 123% |
| S=P(N1CC1)(N1CC1)N1CC1 | 0% | -30.2% | 0% | -13.4% | -8.4% | 121% | 102% | 103% | 64% | 94.2% |
| OCCN1C[C@H](O)[C@@H](O)[C@H](O)[C@H]1CO | 21% | -5.6% | 11.8% | -4.9% | 4% | 136% | 105% | 107% | 77.8% | 110% |
| CCOC(=O)OC(C)OC(=O)[C@@H]1N2C(=O)[C@@H](NC(=O)[C@H](N)c3ccccc3)[C@H]2SC1(C)C (stereo not given in full) | -26.6% | -26.2% | 6.2% | 38.4% | -12.8% | 91.1% | 94.4% | 128% | 146% | 97.5% |
| COc1ccc(-c2cc(=O)c3c(O)cc(O)c(-c4cc(-c5cc(=O)c6c(O)cc(O)cc6o5)ccc4OC)c3o2)cc1 | -25% | 13.3% | -8.4% | 9% | 5.6% | 84.3% | 96.6% | 50% | 13.1% | 17.2% |
| c1ccc(-c2ccc(C(c3ccccc3)n3ccnc3)cc2)cc1 (stereo not given) | -35.5% | 36.5% | -6.8% | 25.2% | 27.7% | 95.7% | 146% | 96.8% | 108% | 137% |
| Cc1cc2nc3c(=O)[nH]c(=O)nc-3n(C[C@H](O)[C@H](O)[C@H](O)CO)c2cc1C | -7.5% | -25.3% | 21.9% | 3.9% | 21% | 138% | 118% | 105% | 126% | 126% |
| O=C(/C=C/C=C/c1ccc2c(c1)OCO2)N1CCCCC1 | -15.1% | 0.3% | -11.1% | -0.3% | -6.4% | 79.1% | 93.7% | 85.3% | 101% | 98.3% |
| Nc1ncnc2c1ncn2[C@H]1C[C@H](O)[C@@H](CO)O1 | -0.8% | -1.8% | -0.7% | 12.8% | 4.4% | 142% | 122% | 114% | 108% | 94.8% |
| CS(=O)(=O)c1ccc([C@@H](O)[C@@H](CO)NC(=O)C(Cl)Cl)cc1 | -41.9% | 30.2% | -8.7% | 44.3% | -2.2% | 90.9% | 149% | 95.7% | 148% | 117% |
| COc1ccc2c(=O)c(OC)c(-c3ccccc3)oc2c1 | -15.6% | -6.1% | 4.4% | 0% | -1.5% | 77.4% | 85.3% | 87% | 79.9% | 111% |
| O=C(O)CCCCCCCC(O)C(O)CCCCCCO (stereo not given) | 11.2% | 9% | 20.3% | 10.5% | 21.2% | 106% | 129% | 99.9% | 142% | 120% |
| CC(C)CC(NC(=O)OCC1c2ccccc2-c2ccccc21)C(=O)O (stereo in doubt) | 5.4% | 13.4% | 18.8% | 15.5% | -1.5% | 127% | 122% | 124% | 134% | 97.5% |
| OC(Cn1cncn1)(Cn1cncn1)c1ccc(F)cc1F | -30.7% | 10.1% | -1.5% | -24.2% | 2.8% | 93.7% | 92.6% | 100% | 131% | 103% |
| CC(C)CCC[C@@H](C)[C@H]1CC[C@H]2[C@@H]3CC[C@H]4CC(=O)CC[C@]4(C)[C@H]3CC[C@]12C | 14.8% | 11.9% | 15.9% | -2.1% | -12.1% | 70.8% | 67.9% | 85% | 109% | 92.5% |

One compound at a time, from the list above. Order of values: loss of total cells ([1]; 1.39 µM) | loss of total cells ([1]; 2.78 µM) | loss of total cells ([1]; 5.56 µM) | loss of total cells ([1]; 11.11 µM) | loss of total cells ([1]; 22.22 µM) | synaptosome phagocytosis ([2]; 1.39 µM) | synaptosome phagocytosis ([2]; 2.78 µM) | synaptosome phagocytosis ([2]; 5.56 µM) | synaptosome phagocytosis ([2]; 11.11 µM) | synaptosome phagocytosis ([2]; 22.22 µM)
`COc1ccc(-c2cc(=O)c3c(O)cc(O)c(-c4cc(-c5cc(=O)c6c(O)cc(O)cc6o5)ccc4OC)c3o2)cc1` reads -25% | 13.3% | -8.4% | 9% | 5.6% | 84.3% | 96.6% | 50% | 13.1% | 17.2%
`S=P(N1CC1)(N1CC1)N1CC1` reads 0% | -30.2% | 0% | -13.4% | -8.4% | 121% | 102% | 103% | 64% | 94.2%
